PubChem BioAssay AID1347076 (National Center for Advancing Translational Sciences (NCATS), 2019)
The whole screen tested about 400,000 compounds, of which about 13,000 (3.2%) were called active. Inconclusive results, whose numbers are uncertain, are shown with a selection of clear calls. Calls come from the whole dose curve; as a rule, active = well fitted cell-killing curve with a large enough effect; inconclusive = small, poorly fitted or top-dose-only effect, or effect the other way; inactive = flat fitted curve, though single readings scatter. Potencies of inconclusive entries are doubtful fits and often do not repeat.

Experiment: qHTS assay for MDR1-selective chemotherapeutics: Primary screen using the drug-selected MDR subline cells KB-V1; note: nearly all actives have a fitted effect of over 60% in size
Conditions: KB-V1 MDR cells viability, CellTiter-Glo, 72 h; series mostly up to 46.1 µM
Outline: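 Cytotoxicity via CellTiter-Glo luminescence after 72 h compound exposure at 37 degrees C. Cells: drug-selected KB-V1 line, DMEM phenol-red free plus 10% FBS. Compounds tested at multiple concentrations; normalized data fitted to concentration-effect curves.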
Potency is the fitted concentration of half-maximal effect.

SMILES	Potency
COc1cc(-c2c(CCO)sc3ccccc23)cc(OC)c1OC	active: 20.6 µM
CCOc1cccc(C(=O)NC(=S)Nc2ccc3c(c2)OCCO3)c1	inconclusive: 18.4 µM [cytotoxic, single point]
CN(CC(=O)Nc1ccccc1C(F)(F)F)C(=O)COc1cccnc1[N+](=O)[O-]	inconclusive: 13 µM [rising, partial curve, poor fit]
CCOC(=O)c1c(C)c(C)n(Cc2cccc(OC)c2OC)c1C	inconclusive: 14.6 µM [cytotoxic, partial curve, poor fit]
O=C(COc1cccc(Cl)c1)Nc1nc(-c2ccc(S(=O)(=O)N3CCOCC3)cc2)cs1	inconclusive: 11.6 µM [cytotoxic, partial curve]
Cc1cc(C)c2oc(C(=O)Nc3c(C(=O)Nc4ccccc4)oc4ccccc34)cc(=O)c2c1	inconclusive: 25.9 µM [rising, partial curve, poor fit]
COc1ccc(C(=O)CC(Nc2ccc([N+](=O)[O-])cc2)c2ccc(Cl)cc2)cc1 (stereo not drawn)	active: 6.51 µM
C/C=C/c1ccc(OCC(=O)N(C)CC(=O)Nc2ccc(F)cc2)c(OC)c1	active: 16.4 µM
O=C(O)Cc1sc(NC2CCCCC2)nc1-c1ccc(Cl)cc1	inconclusive: 16.4 µM [cytotoxic, partial curve, poor fit]
COc1ccc2ccccc2c1/C=N/NC(=S)Nc1cc(S(=O)(=O)N2CCOCC2)ccc1N1CCOCC1	inactive
COc1cccc(-n2nnnc2SCC(=O)Nc2ccc3c(c2)OCCO3)c1	inactive
Cc1ccc(-c2cc(=O)c3cc(C)ccc3[nH]2)cc1	inconclusive: 16.4 µM [cytotoxic, single point]
CC/C(=N\NC(=O)c1c[nH]c2ccccc12)c1cccs1	active: 16.4 µM
CC(=O)c1ccc(-n2c(C)c(C(C)=O)c3cc(O)ccc32)cc1	inactive
Cc1ccc(OCC(=O)Nc2ccc(S(=O)(=O)N(Cc3ccccc3)c3ccccc3)cc2)cc1	inconclusive: 5.8 µM [cytotoxic, full curve, poor fit]
CCCCn1cc(S(=O)(=O)c2ccc(Cl)cc2)c(=O)c2cc(F)c(N3CCCCC3)cc21	inactive
Cn1c(SCc2ccc(F)cc2)nc2ccc(C(=O)NCc3ccccc3)cc21	inconclusive: 23.1 µM [cytotoxic, partial curve, poor fit]
Cc1cc(C)cc(OCCNS(=O)(=O)c2cccs2)c1	inconclusive: 29.1 µM [cytotoxic, partial curve, poor fit]
Oc1ccc(N=Nc2n[nH]c(-c3ccccc3)n2)cc1	inconclusive: 16.4 µM [cytotoxic, single point]
CCC(C)(C)C1CCC2(CC1)NC(=O)N(CC(=O)N(C)CC(=O)Nc1ccccc1C(F)(F)F)C2=O (stereo not drawn)	inconclusive: 20.6 µM [cytotoxic, partial curve]
CCn1nnc(-c2ccccc2NC(=O)c2cc(OC)cc(OC)c2)n1	inactive
Cc1c(C(=O)Nc2ccccn2)oc2ccccc12	active: 10.3 µM
Cc1ccccc1NC(=O)/C=C1\SC(=O)NC1=O	inconclusive: 0.651 µM [rising, full curve]
COc1ccc2cc(C3CC=C(CO)CN3S(=O)(=O)c3ccccc3[N+](=O)[O-])n(C(=O)OC(C)(C)C)c2c1 (stereo not drawn)	inconclusive: 18.4 µM [cytotoxic, partial curve]
COc1cc2c(-c3ccccc3Cl)nc3c(c(C)nn3-c3ccccc3)c2cc1OC	inconclusive: 29.1 µM [cytotoxic, single point]

Look-ups from the entries so far:
Potency, `CCC(C)(C)C1CCC2(CC1)NC(=O)N(CC(=O)N(C)CC(=O)Nc1ccccc1C(F)(F)F)C2=O` (stereo not drawn) is entered as inconclusive: 20.6 µM [cytotoxic, partial curve]
Potency, `CC/C(=N\NC(=O)c1c[nH]c2ccccc12)c1cccs1` is entered as active: 16.4 µM
Potency, `C/C=C/c1ccc(OCC(=O)N(C)CC(=O)Nc2ccc(F)cc2)c(OC)c1` is entered as active: 16.4 µM
Potency, `COc1ccc2ccccc2c1/C=N/NC(=S)Nc1cc(S(=O)(=O)N2CCOCC2)ccc1N1CCOCC1` is entered as inactive

Three structures out of the list, ordered by formula weight, ascending:
SMILES	Potency
Cc1ccc(-c2cc(=O)c3cc(C)ccc3[nH]2)cc1	inconclusive: 16.4 µM [cytotoxic, single point]
CCn1nnc(-c2ccccc2NC(=O)c2cc(OC)cc(OC)c2)n1	inactive
Cn1c(SCc2ccc(F)cc2)nc2ccc(C(=O)NCc3ccccc3)cc21	inconclusive: 23.1 µM [cytotoxic, partial curve, poor fit]

(listing goes on)

SMILES	Potency
CCN(C(=O)CN1C(=O)NC(c2ccccc2)(c2ccc(C)c(C)c2)C1=O)C1CCS(=O)(=O)C1 (stereo not drawn)	inactive
CCOC(=O)c1c(-c2ccc(OC)c(OC)c2)csc1NC(=O)c1ccc(F)cc1	inactive
COC(=O)[C@]12CCCCC=C1N(Cc1cccc3ccccc13)C(=O)[C@H](CC(=O)NCc1cccs1)C2	active: 16.4 µM
COc1cc(/C=N/Nc2ccc([N+](=O)[O-])cn2)cc(OC)c1O	inactive
Cc1cc(C)n(C(=O)c2ccccc2[N+](=O)[O-])n1	inconclusive: 2.91 µM [cytotoxic, partial curve, poor fit]
Cc1nc2ccc(S(=O)(=O)NC(C(=O)NCc3ccc(Cl)cc3)C(C)C)cc2s1 (stereo not drawn)	inactive
COc1ccccc1CNC(=O)c1c(O)nc2cc(C)ccn2c1=O	inactive
Cc1cc(C)n(C(=O)c2ccc(C)c(S(=O)(=O)N3CCCC3)c2)n1	inactive
NC(=O)Cn1cnc2c(nnn2-c2ccc(F)cc2)c1=O	inconclusive: 29.1 µM [rising, single point]
CCc1ccc2occ(CC(=O)Nc3sc4c(c3C(=O)OC)CCC4)c2c1	inactive
O=C(NC(=S)NCc1cccnc1)c1ccccc1[N+](=O)[O-]	active: 23.1 µM
CC(=O)N1CCC(C(=O)Nc2nnc(C(C)C)s2)CC1	inconclusive: 29.1 µM [rising, single point]
COc1cccc(N2C(=O)CSC23C(=O)N(CC(=O)NCc2ccc(C)cc2)c2ccccc23)c1 (stereo not drawn)	inactive
O=C(NCc1ccccc1Cl)c1cc2cccc3c2n1CCS3	inactive
C/C(N)=C(/C#N)C(=O)COC(=O)CNS(=O)(=O)c1ccc(C)cc1	inconclusive: 29.1 µM [rising, single point]
COCc1c(C#N)c(NCc2cc(OC)c(OC)c(OC)c2)nc(C)c1[N+](=O)[O-]	active: 5.17 µM
CCCC(=O)OCC(=O)Nc1cc(Cl)ccc1[N+](=O)[O-]	inconclusive: 29.1 µM [rising, single point]
CC(C)C1N=C(c2ccc3c(c2)OCO3)CC(c2ccccc2O)N1 (stereo not drawn)	inconclusive: 14.6 µM [cytotoxic, single point]
CC(=O)c1ccc(N2CCN(CC(=O)Nc3ccccc3N3CCOCC3)CC2)cc1	inconclusive: 10.3 µM [cytotoxic, partial curve]
COc1ccccc1N1CCN(C2CCCN(C(=O)CCc3cnn(C)c3)C2)CC1 (stereo not drawn)	inactive
COc1cc(OC)cc(-c2nc3cc(C)ccc3o2)c1	inconclusive: 18.4 µM [cytotoxic, partial curve]
CCOCCCn1c(=NC(=O)c2cccs2)c(C#N)cc2c(=O)n3ccccc3nc21	inactive
O=C(COC(=O)C1CC(=O)N(Cc2ccccc2)C1)Nc1cccc([N+](=O)[O-])c1 (stereo not drawn)	inconclusive: 23.1 µM [rising, single point]
C/C=C1\COC(C(=O)NCc2cccc(OC)c2OC)(C(F)(F)F)C=C1C=C1CCCCC1 (stereo not drawn)	inactive
COCCNc1nc(Oc2cccc(F)c2)c2sccc2n1	inactive

SMILES	Potency
O=C(COC(=O)c1cc(Br)ccc1O)Nc1cccnc1Cl	inconclusive: 29.1 µM [rising, single point]
COc1ccccc1N1CCN(C(=O)Cn2nnc(-c3ccncc3)n2)CC1	inconclusive: 29.1 µM [cytotoxic, partial curve, poor fit]
CC(C)(C)C1=C(C#N)C(c2cccnc2)C(C#N)=C(N)O1 (stereo not drawn)	inactive
O=C(c1cccs1)N1CCC(Cc2ccccc2)CC1	inactive
COC(=O)[C@H]1C[C@H]1[C@@H](NC(=O)c1cccnc1)c1ccccc1	inconclusive: 0.291 µM [rising, full curve, poor fit]
COCc1cc(Sc2ccc(Cl)cc2)nc(C)n1	inactive
CCCOC(=O)Cc1c(O)c2ccccc2[nH]c1=O	inconclusive: 8.2 µM [rising, partial curve, poor fit]
CCn1c(SCC(=O)Nc2ccccc2-c2ccccc2)nnc1-c1ccoc1C	inconclusive: 8.2 µM [cytotoxic, partial curve, poor fit]
COc1ccc(C(=O)O/N=C2\CCS(=O)(=O)c3sccc32)cc1	inconclusive: 29.1 µM [rising, single point]
O=C1Nc2ccc(Br)cc2C1=C1CCCCC1	inconclusive: 13 µM [cytotoxic, partial curve, poor fit]
O=S(=O)(c1ccc(OCC(O)CN2CCC(Cc3ccccc3)CC2)cc1)N1CCOCC1 (stereo not drawn)	inconclusive: 23.1 µM [cytotoxic, single point]
CC(=O)N(CCC(c1ccccc1)c1ccco1)Cc1cccs1 (stereo not drawn)	active: 20.6 µM
C[C@@H]1CN([C@@H](C)CO)C(=O)CCCn2nncc2CO[C@@H]1CN(C)C(=O)Nc1ccc(N2CCN(C)CC2)cc1	inactive
Cc1nc2ccccn2c1C(=O)NNC(=S)Nc1ccc(Cl)cc1	inconclusive: 14.6 µM [cytotoxic, partial curve]
O=S(=O)(Nc1ccc(Cc2ccncc2)cc1)c1ccc(Br)s1	active: 14.6 µM
COCCNS(=O)(=O)c1ccc2c(c1)n(C)c(=O)n2C	inactive
O=C(Cc1cccc2ccccc12)Nc1ccc(OC(F)F)c(Cl)c1	active: 20.6 µM
COc1ccc2[nH]cc(CCCN3C(=O)c4ccccc4C3=O)c2c1	active: 23.1 µM
OC(c1ccc(Cl)cc1)c1ncc(-c2cccc(F)c2)[nH]1 (stereo not drawn)	inactive
COc1ccc(/C=C/C(=O)NCC2COc3ccccc3O2)c(OC)c1 (stereo not drawn)	inconclusive: 13 µM [cytotoxic, single point]
CCOC(=O)CCc1c(C)nc(SCCCn2c(=O)[nH]c3ccccc32)c(C#N)c1C	inconclusive: 18.4 µM [cytotoxic, partial curve, poor fit]
O=C(c1cccnc1)N1N=C(C2CCCCC2)CC1(O)C(F)(F)F (stereo not drawn)	inconclusive: 0.461 µM [rising, partial curve, poor fit]
CCCCNCc1cccn1-c1ccccc1	inconclusive: 32.6 µM [cytotoxic, partial curve, poor fit]
